Out of some 330,000 compounds screened, about 7,700 (2.3%) were called active. Inconclusive results, whose numbers are uncertain, are shown with a selection of clear calls. Calls come from the whole dose curve; as a rule, active = well fitted inhibition curve with a large enough effect; inconclusive = small, poorly fitted or top-dose-only effect, or effect the other way; inactive = flat fitted curve, though single readings scatter. A potency beside an inconclusive call is a rough fit, not a confirmed value.
Assay: qHTS screen for small molecules that inhibit ELG1-dependent DNA repair in human embryonic kidney (HEK293T) cells expressing luciferase-tagged ELG1; note: nearly all actives have a fitted effect of over 55% in size
Settings: HEK293T ELG1-luciferase reporter, luminescence, 16 h, DNA damage induced by 5-fluorouridine; series mostly up to 46.1 µM
Summary of the method: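 Quantitative HTS, concentration-response format. 2,000 cells/well co-treated with 5-fluorouridine and compound, 16 hr in 5% CO2 at 37 °C; ONE-Glo luminescence read after 30 min.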
Potency is the fitted concentration of half-maximal effect.

Row | SMILES | Potency
1 | Cc1ccc(SCc2nnc(NC(=O)c3ccccc3)s2)cc1 | inactive
2 | COc1ccc(C(=O)Nc2ccccc2C(=O)N/N=C/c2ccco2)cc1 | inconclusive: 3.26 µM [activator, full curve]
3 | Oc1ccc(/C=N/n2c(-c3ccccc3)n[nH]c2=S)cc1 | inactive
4 | CCN(CC)S(=O)(=O)c1ccc(Cl)c(NC(=O)COC(=O)c2nc3nc(C)cc(C)n3n2)c1 | inactive
5 | COc1cccc(C(=O)NC(=S)N2CCN(c3ccc(C(F)(F)F)cc3[N+](=O)[O-])CC2)c1 | inactive
6 | O=C(CNC(=O)c1ccc(Br)cc1)NCC(=O)OCC(=O)c1ccc([N+](=O)[O-])cc1 | inactive
7 | Cc1ccsc1C(=O)OCC(=O)N1C(C)CCCC1C (stereo not given) | inconclusive: 25.9 µM [activator, single point]
8 | Cc1cccc(NC(=O)c2ccc(N3CCCCC3)c([N+](=O)[O-])c2)n1 | inconclusive: 0.58 µM [activator, partial curve, poor fit]
9 | CCCCNc1c(-c2ccc(OC)c(SC3CCCCC3)c2)nc2ccc(C)cn12 | inconclusive: 23.1 µM [inhibitor, partial curve]
10 | Cc1ccc(C(=O)NNC(=O)OC(C)(C)C)c(Cl)c1 | inconclusive: 23.1 µM [activator, partial curve]
11 | Clc1ccc2c(c1)CNc1c(ncnc1N1CCOCC1)O2 | inconclusive: 18.4 µM [inhibitor, single point]
12 | CC(C)(C)OC(=O)NCc1ccc(CNC(=O)c2nc[nH]c2C(=O)NCc2ccccc2)cc1 | inconclusive: 29.1 µM [inhibitor, single point]
13 | CN(c1ccc(C(=O)N2CCOCC2)cc1[N+](=O)[O-])C1CCCCC1 | inconclusive: 5.17 µM [activator, single point]
14 | CCOC(=O)C(=N/O)/C(C)=N/NC(=O)C(=O)Nc1ccc(Cl)cc1 | inconclusive: 13 µM [inhibitor, partial curve, poor fit]
15 | O=C(Nc1ccccc1F)C1CC1c1ccccc1 (stereo not given) | inconclusive: 20.6 µM [activator, single point]
16 | O=C1CC(N(CCc2ccccc2)C(=S)Nc2ccccc2)C(=O)N1c1ccc(Br)cc1 (stereo not given) | inactive
17 | Cc1cccc(OC(=O)CN2C(=O)C3C4CCC(C4)C3C2=O)c1C (stereo not given) | inactive
18 | CCSC1=C(C#N)C(c2ccc(C)s2)CC(=O)N1 (stereo not given) | inactive
19 | Cc1c(NC(=O)c2ccc(N(C)S(=O)(=O)c3ccccc3)cc2)c(=O)n(-c2ccccc2)n1C | inconclusive: 0.411 µM [inhibitor, full curve, poor fit]
20 | COc1ccccc1C(=O)NCc1ccccc1 | inactive
21 | COCCn1c(SCc2cnc(-c3ccccc3)s2)nnc1-c1ccncc1 | inconclusive: 29.1 µM [inhibitor, single point]
22 | Cc1cccc(/C(N)=N/OC(=O)c2ccco2)c1 | inconclusive: 10.3 µM [activator, partial curve]
23 | Cc1ccc(O)c(CNc2cccc3cccnc23)c1 | inactive

Sorted by length of the SMILES (smallest number first): part of the list above
Row | SMILES | Potency
20 | COc1ccccc1C(=O)NCc1ccccc1 | inactive
11 | Clc1ccc2c(c1)CNc1c(ncnc1N1CCOCC1)O2 | inconclusive: 18.4 µM [inhibitor, single point]
13 | CN(c1ccc(C(=O)N2CCOCC2)cc1[N+](=O)[O-])C1CCCCC1 | inconclusive: 5.17 µM [activator, single point]

(next part)

Row | SMILES | Potency
24 | Cc1ccc(C(=O)CSc2ccc(-c3cccnc3)nn2)cc1 | inactive
25 | C/C(=N\NC(=O)c1ccncc1)c1ccc(N2CCOCC2)cc1 | inactive
26 | CN(C(=O)c1ccc(NC(=O)Cc2ccc(NC(=O)C3CCCN(C(=O)C4CC4)C3)cc2)cc1)C1CC1 (stereo not given) | inactive
27 | CC(C)(C)c1ccc(C(=O)Nc2cccc([N+](=O)[O-])c2)cc1 | inconclusive: 1.84 µM [activator, partial curve]
28 | CCOC(=O)c1[nH]c2ccccc2c1NC(=S)Nc1ccccc1 | inconclusive: 20.6 µM [activator, partial curve]
29 | COc1ccc(-c2oc(NC(=O)CCl)c(C#N)c2-c2ccc(OC)cc2)cc1 | inconclusive: 23.1 µM [inhibitor, partial curve]
30 | Cc1cc(NC(=O)c2cccc([N+](=O)[O-])c2)no1 | inconclusive: 29.1 µM [inhibitor, partial curve, poor fit]
31 | CCOC(=O)C1CCCN(C(=O)C2CCN(C(=O)Nc3ccccc3)CC2)C1 (stereo not given) | inconclusive: 4.61 µM [activator, single point]
32 | NC(=O)c1ccccc1OCC(=O)Nc1ccc(Cl)c(Cl)c1 | inconclusive: 1.64 µM [activator, full curve]
33 | Cc1cc(C(=O)Nc2cccc(O)c2)co1 | inconclusive: 20.6 µM [activator, single point]
34 | O=C(CN(c1ccc(F)cc1)S(=O)(=O)c1ccc2c(c1)OCCO2)Nc1ccc2c(c1)OCO2 | inconclusive: 16.4 µM [inhibitor, single point]
35 | COc1ccccc1NS(=O)(=O)c1cc([N+](=O)[O-])ccc1N/N=C/c1c(C)[nH]c2ccccc12 | inconclusive: 16.4 µM [inhibitor, partial curve, poor fit]
36 | CCSCCC(NC1=CC(=O)CC(C)(C)C1)C(=O)O (stereo not given) | inconclusive: 32.6 µM [activator, single point]
37 | CNc1cnn(-c2ccccc2)c(=O)c1Cl | inactive
38 | CCCCC(NC(C)=O)c1nc2ccccc2n1CCC (stereo not given) | inactive
39 | CN(CC(=O)Nc1ccc2c(c1)OCO2)S(=O)(=O)c1ccc2c(c1)CCC(=O)N2 | inactive
40 | COc1cc(NC(=O)COc2cc(C)cc3oc(=O)c(C)c(C)c23)cc(OC)c1OC | inconclusive: 2.59 µM [activator, full curve]
41 | C(=N\n1cnc2ccccc21)/c1cccnc1 | inconclusive: 11.6 µM [activator, partial curve, poor fit]
42 | Clc1ccc(C2Nc3ccccc3-n3cccc32)cc1 (stereo not given) | inconclusive: 8.2 µM [activator, partial curve]
43 | COc1ccc(S(=O)(=O)N(C)C[C@H]2Oc3ccc(NS(=O)(=O)c4ccc(F)cc4)cc3C(=O)N([C@H](C)CO)C[C@@H]2C)cc1 | inconclusive: 23.1 µM [inhibitor, single point]
44 | CC(C)(O)c1cc2ccccc2c(=O)o1 | inconclusive: 18.3 µM [activator, single point]
45 | Cc1ccc(-c2nc(-c3cccnc3)no2)c(C)c1 | inconclusive: 9.2 µM [activator, partial curve]

— PubChem BioAssay AID504467 (National Center for Advancing Translational Sciences (NCATS), 2011)
